Here are results for two molecules from paper PMC6465271.

Common to all, as to experiment: two-hybrid; yeast strain AH109; QKY domains on the GAL4 DNA-binding domain (pAS2-1), SCM domains on the GAL4 activation domain (pACT2); growth on -A-H-L-T selective plates for 3 days
Assay [1] concerns the target T1, CAPRICE (CPC), yeast two-hybrid fusion (Arabidopsis) (UniProt O22059).
T1 sequence: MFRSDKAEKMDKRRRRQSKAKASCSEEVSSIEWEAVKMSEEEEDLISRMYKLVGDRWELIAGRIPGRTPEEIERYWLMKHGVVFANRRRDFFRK

The target of assay [2] is QKY third domain (QKYD3) fused to the GAL4 DNA-binding domain (Arabidopsis).
For assay [3], the target named is QKY second domain (QKYD2) fused to the GAL4 DNA-binding domain (Arabidopsis).

Results are given in words; binding and its absence hold for the method and conditions named. Sequences can lack the tags named with a protein.

Consider “SCM cytosolic domain (SCMCD) fused to the GAL4 activation domain (Arabidopsis) (domain or fragment)”, for which the binding entry in assay [1] is “no binding”.

B1: CAPRICE (CPC), yeast two-hybrid fusion (protein, UniProt O22059 1-94)
chain: MFRSDKAEKMDKRRRRQSKAKASCSEEVSSIEWEAVKMSEEEEDLISRMYKLVGDRWELIAGRIPGRTPEEIERYWLMKHGVVFANRRRDFFRK
B1: the binding entry in assay [2] and in assay [3] was “no binding” each time.
